Measured values taken from patent US20230137032A1.
Results are given in words; binding and its absence hold for the method and conditions named. Some entries that bind do so weakly or less than the wild type. For part of these data: Where a sequence is shown, tags or fusion partners need not be part of it.

By UniProt entry, the sequences of proteins in these tests, tags left out. Residues count along the entry.
recombinant human BCMA, in house material (Q02223, residues 4-53): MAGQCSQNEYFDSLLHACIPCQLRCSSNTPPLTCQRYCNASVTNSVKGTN
recombinant human BCMA, commercial (US Biological, B0410) (Q02223, residues 5-54): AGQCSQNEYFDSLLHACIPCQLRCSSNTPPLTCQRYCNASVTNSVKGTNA

Key:
[1] = biological target: Human BCMA-Fc (ELISA of section 4.2) (human) (UniProt Q02223); experiment: ELISA on coated human BCMA-Fc
[2] = biological target: cyno BCMA expressed on HEK293 cells (cyno); experiment: FMAT on cyno BCMA transfected HEK293 cells
[3] = biological target: BCMA-Fc (Biacore of section 4.3) (Homo sapiens (Human)) (UniProt Q02223); experiment: Biacore, antibody captured on protein A, BCMA-Fc injected
TACI-Fc [4] = biological target: T1, TACI-Fc (UniProt O14836); experiment: Biacore, antibody captured on protein A, TACI-Fc injected
T1 sequence (looked up): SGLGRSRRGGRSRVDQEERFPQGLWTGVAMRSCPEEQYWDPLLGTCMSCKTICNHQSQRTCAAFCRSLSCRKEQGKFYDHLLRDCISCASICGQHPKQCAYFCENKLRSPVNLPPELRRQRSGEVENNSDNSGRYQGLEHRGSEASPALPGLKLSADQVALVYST

BAFF-R-Fc [5] = biological target: T2, BAFF-R-Fc (UniProt Q96RJ3); experiment: Biacore, antibody captured on protein A, BAFF-R-Fc injected
T2 sequence (looked up): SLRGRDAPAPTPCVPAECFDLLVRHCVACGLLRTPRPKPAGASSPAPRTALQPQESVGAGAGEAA

[6] = biological target: Human BCMA-Fc (ELISA of section 4.2) (human) (UniProt Q02223); experiment: ELISA on coated human BCMA-Fc, anti-human IgG HRP, TMB
TACI-Fc [7] = biological target: T1, TACI-Fc; experiment: Biacore, CA8 chimera captured on protein A, TACI-Fc injected, double referenced
BAFF-R-Fc [8] = biological target: T2, BAFF-R-Fc; experiment: Biacore, CA8 chimera captured on protein A, BAFF-R-Fc injected, double referenced
[9] = biological target: BCMA-Fc (Biacore of section 4.3) (Homo sapiens (Human)) (UniProt Q02223); experiment: Biacore, CA8 chimera captured on protein A, BCMA-Fc injected at 2.5 µg/ml, double referenced
[10] = biological target: cyno BCMA expressed on HEK293 cells (cyno); experiment: FMAT cell binding on HEK293 cells transfected with cyno BCMA, anti-human IgG FMAT Blue detection
[11] = biological target: recombinant human BCMA, commercial (US Biological, B0410) (human) (UniProt Q02223); experiment: Biacore T100, antibody captured on Protein A, 37C
[12] = biological target: recombinant human BCMA, in house material (human) (UniProt Q02223); experiment: ProteOn SPR run 2; off-rate beyond sensitivity; in house or commercial BCMA not told apart
[13] = biological target: recombinant human BCMA, in house material (human) (UniProt Q02223); experiment: ProteOn SPR run 2, antibody captured on Protein A; off-rate beyond the sensitivity of the assay

B1: CA8 chimera antibody (human chimeric CA8) (antibody, V domains shown)
VH: EVQLQQSGAVLARPGASVKMSCKGSGYTFTNYWMHWVKQRPGQGLEWIGATYRGHSDTYYNQKFKGKAKLTAVTSTSTAYMELSSLTNEDSAVYYCTRGAIYNGYDVLDNWGQGTLVTVSS
VL: DIQLTQTTSSLSASLGDRVTISCSASQDISNYLNWYQQKPDGTVELVIYYTSNLHSGVPSRFSGSGSGTDYSLTIGYLEPEDVATYYCQQYRKLPWTFGGGSKLEIKR
With B1 the binding [1] was “binds”, the binding [2] was “binds” and the binding [3] was “binds”. For the same binder, the binding (TACI-Fc [4]) was “no binding”, the binding (BAFF-R-Fc [5]) was “no binding” and the binding [6] was “binds”. For the same binder, the binding (TACI-Fc [7]) was “no binding (tested: 2.5 µg/ml)”, the binding (BAFF-R-Fc [8]) was “no binding (tested: 2.5 µg/ml)” and the binding [9] was “binds”. For the same binder, the binding [10] was “binds”.

B2: CA8 humanised J9M1 (antibody, human IgG1, kappa, V domains shown)
VH: QVQLVQSGAEVKKPGSSVKVSCKGSGYTFTNYWMHWVRQAPGQGLEWIGATYRGHSDTYYNQKFKGRATLTADTSTSTAYMELSSLRSEDTAVYYCTRGAIYDGYDVLDNWGQGTLVTVSS
VL: DIQMTQSPSSLSASVGDRVTITCSASQDISNYLNWYQQKPGKAPKLLIYYTSNLHSGVPSRFSGSGSGTDYTLTISSLQPEDFATYYCQQYRKLPWTFGQGTKLEIKR
B2 was tested, and the binding [11] was “binds”, the binding [12] was “binds” and the binding [13] was “binds”.

B3: CA8 humanised J9M0 (antibody, human IgG1, kappa, V domains shown)
VH: QVQLVQSGAEVKKPGSSVKVSCKGSGYTFTNYWMHWVRQAPGQGLEWIGATYRGHSDTYYNQKFKGRATLTADTSTSTAYMELSSLRSEDTAVYYCTRGAIYDGYDVLDNWGQGTLVTVSS
VL: DIQMTQSPSSLSASVGDRVTITCSASQDISNYLNWYQQKPGKAPKLLIYYTSNLHSGVPSRFSGSGSGTDFTLTISSLQPEDFATYYCQQYRKLPWTFGQGTKLEIKR
For B3, the binding [11] was “binds”, the binding [12] was “binds” and the binding [13] was “binds”.

B4: CA8 humanised J8M1 (antibody, human IgG1, kappa, V domains shown)
VH: QVQLVQSGAEVKKPGSSVKVSCKASGYTFTNYWMHWVRQAPGQGLEWMGATYRGHSDTYYNQKFKGRVTITADKSTSTAYMELSSLRSEDTAVYYCTRGAIYDGYDVLDNWGQGTLVTVSS
VL: DIQMTQSPSSLSASVGDRVTITCSASQDISNYLNWYQQKPGKAPKLLIYYTSNLHSGVPSRFSGSGSGTDYTLTISSLQPEDFATYYCQQYRKLPWTFGQGTKLEIKR
B4 was tested, and the binding [11] was “binds”, the binding [12] was “binds” and the binding [13] was “binds”.

B5: CA8 humanised J8M0 (antibody, human IgG1, kappa, V domains shown)
VH: QVQLVQSGAEVKKPGSSVKVSCKASGYTFTNYWMHWVRQAPGQGLEWMGATYRGHSDTYYNQKFKGRVTITADKSTSTAYMELSSLRSEDTAVYYCTRGAIYDGYDVLDNWGQGTLVTVSS
VL: DIQMTQSPSSLSASVGDRVTITCSASQDISNYLNWYQQKPGKAPKLLIYYTSNLHSGVPSRFSGSGSGTDFTLTISSLQPEDFATYYCQQYRKLPWTFGQGTKLEIKR
For B5, the binding [11] was “binds”, the binding [12] was “binds” and the binding [13] was “binds”.

B6: CA8 humanised J7M1 (antibody, human IgG1, kappa, V domains shown)
VH: QVQLVQSGAEVKKPGSSVKVSCKASGYTFTNYWMHWVRQAPGQGLEWMGATYRGHSDTYYNQKFKGRVTITADKSTSTAYMELSSLRSEDTAVYYCARGAIYDGYDVLDNWGQGTLVTVSS
VL: DIQMTQSPSSLSASVGDRVTITCSASQDISNYLNWYQQKPGKAPKLLIYYTSNLHSGVPSRFSGSGSGTDYTLTISSLQPEDFATYYCQQYRKLPWTFGQGTKLEIKR
In the case of B6, the binding [11] is reported as “binds”, the binding [12] is reported as “binds” and the binding [13] is reported as “binds”.

B7: CA8 humanised J8M2 (antibody, human IgG1, kappa, V domains shown)
VH: QVQLVQSGAEVKKPGSSVKVSCKASGYTFTNYWMHWVRQAPGQGLEWMGATYRGHSDTYYNQKFKGRVTITADKSTSTAYMELSSLRSEDTAVYYCTRGAIYDGYDVLDNWGQGTLVTVSS
VL: DIQLTQSPSSLSASVGDRVTITCSASQDISNYLNWYQQKPGKAPELVIYYTSNLHSGVPSRFSGSGSGTDYTLTISSLQPEDFATYYCQQYRKLPWTFGQGTKLEIKR
B7 was tested, and the binding [11] was “binds”, the binding [12] was “binds” and the binding [13] was “binds”.

B8: CA8 humanised J7M2 (antibody, human IgG1, kappa, V domains shown)
VH: QVQLVQSGAEVKKPGSSVKVSCKASGYTFTNYWMHWVRQAPGQGLEWMGATYRGHSDTYYNQKFKGRVTITADKSTSTAYMELSSLRSEDTAVYYCARGAIYDGYDVLDNWGQGTLVTVSS
VL: DIQLTQSPSSLSASVGDRVTITCSASQDISNYLNWYQQKPGKAPELVIYYTSNLHSGVPSRFSGSGSGTDYTLTISSLQPEDFATYYCQQYRKLPWTFGQGTKLEIKR
With B8 the binding [11] was “binds”, the binding [12] was “binds” and the binding [13] was “binds”.

B9: CA8 humanised J7M0 (antibody, human IgG1, kappa, V domains shown)
VH: QVQLVQSGAEVKKPGSSVKVSCKASGYTFTNYWMHWVRQAPGQGLEWMGATYRGHSDTYYNQKFKGRVTITADKSTSTAYMELSSLRSEDTAVYYCARGAIYDGYDVLDNWGQGTLVTVSS
VL: DIQMTQSPSSLSASVGDRVTITCSASQDISNYLNWYQQKPGKAPKLLIYYTSNLHSGVPSRFSGSGSGTDFTLTISSLQPEDFATYYCQQYRKLPWTFGQGTKLEIKR
B9 was tested, and the binding [11] was “binds”, the binding [12] was “binds” and the binding [13] was “binds”.

B10: CA8 humanised J9M2 (antibody, human IgG1, kappa, V domains shown)
VH: QVQLVQSGAEVKKPGSSVKVSCKGSGYTFTNYWMHWVRQAPGQGLEWIGATYRGHSDTYYNQKFKGRATLTADTSTSTAYMELSSLRSEDTAVYYCTRGAIYDGYDVLDNWGQGTLVTVSS
VL: DIQLTQSPSSLSASVGDRVTITCSASQDISNYLNWYQQKPGKAPELVIYYTSNLHSGVPSRFSGSGSGTDYTLTISSLQPEDFATYYCQQYRKLPWTFGQGTKLEIKR
B10 was tested, and the binding [12] was “binds” and the binding [13] was “binds”.

B11: CA8 humanised J5M0 (antibody, human IgG1, kappa, V domains shown)
VH: QVQLVQSGAEVKKPGSSVKVSCKGSGYTFTNYWMHWVRQAPGQGLEWMGATYRGHSDTYYNQKFKGRVTITADTSTSTAYMELSSLRSEDTAVYYCTRGAIYDGYDVLDNWGQGTLVTVSS
VL: DIQMTQSPSSLSASVGDRVTITCSASQDISNYLNWYQQKPGKAPKLLIYYTSNLHSGVPSRFSGSGSGTDFTLTISSLQPEDFATYYCQQYRKLPWTFGQGTKLEIKR
In the case of B11, the binding [12] is reported as “binds” and the binding [13] is reported as “binds”.

B12: CA8 humanised J5M2 (antibody, human IgG1, kappa, V domains shown)
VH: QVQLVQSGAEVKKPGSSVKVSCKGSGYTFTNYWMHWVRQAPGQGLEWMGATYRGHSDTYYNQKFKGRVTITADTSTSTAYMELSSLRSEDTAVYYCTRGAIYDGYDVLDNWGQGTLVTVSS
VL: DIQLTQSPSSLSASVGDRVTITCSASQDISNYLNWYQQKPGKAPELVIYYTSNLHSGVPSRFSGSGSGTDYTLTISSLQPEDFATYYCQQYRKLPWTFGQGTKLEIKR
B12 was tested, and the binding [12] was “binds” and the binding [13] was “binds”.

B13: CA8 humanised J5M1 (antibody, human IgG1, kappa, V domains shown)
VH: QVQLVQSGAEVKKPGSSVKVSCKGSGYTFTNYWMHWVRQAPGQGLEWMGATYRGHSDTYYNQKFKGRVTITADTSTSTAYMELSSLRSEDTAVYYCTRGAIYDGYDVLDNWGQGTLVTVSS
VL: DIQMTQSPSSLSASVGDRVTITCSASQDISNYLNWYQQKPGKAPKLLIYYTSNLHSGVPSRFSGSGSGTDYTLTISSLQPEDFATYYCQQYRKLPWTFGQGTKLEIKR
In the case of B13, the binding [12] is reported as “binds” and the binding [13] is reported as “binds”.
